# In the supplement of paper PMC8728848:
# The list shows a part of the results.
# B1: Aap arpt (Staphylococcus epidermidis) (protein)
# chain: NNEAPQMSSTLQAEEGSNAEAPQSEPTKAEEGGNAEAAQSEPTKAEEGGNAEAPQSEPTKAEEGGNAEAAQSEPTKTEEGSNVKAAQSEPTKAEEGSNAEAPQSEPTKTEEGSNAKAAQSEPTKAEEGGNAEAAQSEPTKTEEGSNAEAPQSEPTKAEEGGYAEAPQSEPTKTEEGGNAEAPNVPTIKA
# Experiments:
# Assay in all cases: glycan array binding signal (z-score within array); higher = stronger binding
# Details in all cases: glycan notation: IUPAC condensed, linker removed
# [1] = target: Gal(b1-3)GlcNAc(b1-2)Man(a1-3)[Gal(b1-3)GlcNAc(b1-2)Man(a1-6)]Man(b1-4)GlcNAc(b1-4)[Fuc(a1-6)]GlcNAc
# Outline: (§1)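 The Consortium for Functional Glycomics database supplied 3228 glycan arrays, of which those lacking an available protein sequence were dropped. The binding signal, a within-array Z-score, was averaged across arrays of the same protein sequence and across linkers. Negative scores can be read as non-binding.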
# [2] = target: Gal(b1-3)GlcNAc(b1-2)Man(a1-3)[GlcNAc(b1-4)][Gal(b1-3)GlcNAc(b1-2)Man(a1-6)]Man(b1-4)GlcNAc(b1-4)GlcNAc
# Outline: as §1
# [3] = target: Gal(b1-3)GlcNAc(b1-2)[Gal(b1-3)GlcNAc(b1-6)]Man(a1-6)[Gal(b1-3)GlcNAc(b1-2)Man(a1-3)]Man(b1-4)GlcNAc(b1-4)GlcNAc
# Outline: as §1
# [4] = target: Gal(b1-3)GlcNAc(b1-3)Gal(b1-3)GlcNAc
# Outline: as §1
# [5] = target: Gal(b1-3)GlcNAc(b1-3)Gal(b1-4)Glc
# Outline: as §1
# [6] = target: Gal(b1-3)GlcNAc(b1-3)Gal(b1-4)GlcNAc
# Outline: as §1
# [7] = target: Gal(b1-3)GlcNAc(b1-3)Gal(b1-4)GlcNAc(b1-2)Man(a1-3)[Gal(b1-3)GlcNAc(b1-3)Gal(b1-4)GlcNAc(b1-2)Man(a1-6)]Man(b1-4)GlcNAc(b1-4)GlcNAc
# Outline: as §1
# [8] = target: Gal(b1-3)GlcNAc(b1-3)Gal(b1-4)GlcNAc(b1-2)[Gal(b1-3)GlcNAc(b1-3)Gal(b1-4)GlcNAc(b1-6)]Man(a1-6)[Gal(b1-3)GlcNAc(b1-3)Gal(b1-4)GlcNAc(b1-2)Man(a1-3)]Man(b1-4)GlcNAc(b1-4)[Fuc(a1-6)]GlcNAc
# Outline: as §1
# [9] = target: Gal(b1-3)GlcNAc(b1-3)Gal(b1-4)GlcNAc(b1-3)Gal(b1-4)GlcNAc(b1-2)[Gal(b1-3)GlcNAc(b1-3)Gal(b1-4)GlcNAc(b1-3)Gal(b1-4)GlcNAc(b1-6)]Man(a1-6)[Gal(b1-3)GlcNAc(b1-3)Gal(b1-4)GlcNAc(b1-3)Gal(b1-4)GlcNAc(b1-2)Man(a1-3)]Man(b1-4)GlcNAc(b1-4)[Fuc(a1-6)]GlcNAc
# Outline: as §1
# [10] = target: Gal(b1-3)GlcNAc(b1-3)Gal(b1-4)GlcNAc(b1-6)[Gal(b1-3)GlcNAc(b1-3)]Gal(b1-4)Glc
# Outline: as §1
# [11] = target: Gal(b1-3)GlcNAc(b1-3)Gal(b1-4)[Fuc(a1-3)]GlcNAc
# Outline: as §1
# [12] = target: Gal(b1-3)GlcNAc(b1-3)Gal(b1-4)[Fuc(a1-3)]GlcNAc(b1-6)[Gal(b1-3)GlcNAc(b1-3)]Gal(b1-4)Glc
# Outline: as §1
# [13] = target: Gal(b1-3)GlcNAc(b1-3)GalNAc
# Outline: as §1
# [14] = target: Gal(b1-3)GlcNAc(b1-6)Gal(b1-4)GlcNAc
# Outline: as §1
# [15] = target: Gal(b1-3)GlcNAc(b1-6)GalNAc
# Outline: as §1
# [16] = target: Gal(b1-3)GlcNAc(b1-6)[Gal(b1-3)]GalNAc
# Outline: as §1
# Gal(b1-3)GlcNAc6S = target: Gal(b1-3)GlcNAc6S
# Outline: as §1
# [17] = target: Gal(b1-3)[Fuc(a1-4)]GlcNAc
# Outline: as §1
# [18] = target: Gal(b1-3)[Fuc(a1-4)]GlcNAc(b1-2)Man
# Outline: as §1
# [19] = target: Gal(b1-3)[Fuc(a1-4)]GlcNAc(b1-2)Man(a1-3)[Gal(b1-3)[Fuc(a1-4)]GlcNAc(b1-2)Man(a1-6)]Man(b1-4)GlcNAc(b1-4)[Fuc(a1-6)]GlcNAc
# Outline: as §1
# [20] = target: Gal(b1-3)[Fuc(a1-4)]GlcNAc(b1-3)Gal(b1-3)[Fuc(a1-4)]GlcNAc
# Outline: as §1
# [21] = target: Gal(b1-3)[Fuc(a1-4)]GlcNAc(b1-3)Gal(b1-4)[Fuc(a1-3)]GlcNAc
# Outline: as §1
# [22] = target: Gal(b1-3)[Fuc(a1-4)]GlcNAc(b1-6)GalNAc
# Outline: as §1
# [23] = target: Gal(b1-3)[GlcNAc(b1-6)]GalNAc
# Outline: as §1
# [24] = target: Gal(b1-3)[Neu5Ac(a2-6)]GalNAc
# Outline: as §1
# [25] = target: Gal(b1-3)[Neu5Ac(a2-6)]GlcNAc(b1-4)Gal(b1-4)Glc
# Outline: as §1
# [26] = target: Gal(b1-3)[Neu5Ac(b2-6)]GalNAc
# Outline: as §1
# Gal(b1-4)Gal = target: Gal(b1-4)Gal
# Outline: as §1
# [27] = target: Gal(b1-4)GalNAc(a1-3)[Fuc(a1-2)]Gal(b1-4)GlcNAc
# Outline: as §1
# [28] = target: Gal(b1-4)GalNAc(b1-3)[Fuc(a1-2)]Gal(b1-4)GlcNAc
# Outline: as §1
# Gal(b1-4)Glc = target: Gal(b1-4)Glc
# Outline: as §1
# Gal(b1-4)Glc6S = target: Gal(b1-4)Glc6S
# Outline: as §1
# Gal(b1-4)GlcNAc = target: Gal(b1-4)GlcNAc
# Outline: as §1
# [29] = target: Gal(b1-4)GlcNAc(a1-6)Gal(b1-4)GlcNAc
# Outline: as §1
# Gal(b1-4)GlcNAc(b1-2)Man = target: Gal(b1-4)GlcNAc(b1-2)Man
# Outline: as §1
# [30] = target: Gal(b1-4)GlcNAc(b1-2)Man(a1-3)Man(b1-4)GlcNAc(b1-4)GlcNAc
# Outline: as §1
# [31] = target: Gal(b1-4)GlcNAc(b1-2)Man(a1-3)[Gal(b1-4)GlcNAc(b1-2)Man(a1-6)]Man(b1-4)GlcNAc(b1-4)GlcNAc
# Outline: as §1
# [32] = target: Gal(b1-4)GlcNAc(b1-2)Man(a1-3)[Gal(b1-4)GlcNAc(b1-2)Man(a1-6)]Man(b1-4)GlcNAc(b1-4)[Fuc(a1-6)]GlcNAc
# Outline: as §1
# [33] = target: Gal(b1-4)GlcNAc(b1-2)Man(a1-3)[Gal(b1-4)GlcNAc(b1-2)Man(a1-6)][Gal(b1-4)GlcNAc(b1-4)]Man(b1-4)GlcNAc(b1-4)[Fuc(a1-6)]GlcNAc
# Outline: as §1
# [34] = target: Gal(b1-4)GlcNAc(b1-2)Man(a1-3)[Gal(b1-4)GlcNAc(b1-2)Man(a1-6)][GlcNAc(b1-4)]Man(b1-4)GlcNAc(b1-4)[Fuc(a1-6)]GlcNAc
# Outline: as §1
# [35] = target: Gal(b1-4)GlcNAc(b1-2)Man(a1-3)[GlcNAc(b1-2)Man(a1-6)]Man(b1-4)GlcNAc(b1-4)GlcNAc
# Outline: as §1
# [36] = target: Gal(b1-4)GlcNAc(b1-2)Man(a1-3)[GlcNAc(b1-4)][Gal(b1-4)GlcNAc(b1-2)Man(a1-6)]Man(b1-4)GlcNAc(b1-4)GlcNAc
# Outline: as §1
# [37] = target: Gal(b1-4)GlcNAc(b1-2)Man(a1-3)[Man(a1-6)]Man(b1-4)GlcNAc(b1-4)GlcNAc
# Outline: as §1
# [38] = target: Gal(b1-4)GlcNAc(b1-2)Man(a1-6)Man(b1-4)GlcNAc(b1-4)GlcNAc
# Outline: as §1
# [39] = target: Gal(b1-4)GlcNAc(b1-2)Man(a1-6)[GlcNAc(b1-2)Man(a1-3)]Man(b1-4)GlcNAc(b1-4)GlcNAc
# Outline: as §1
binder,measurement,setting,value
B1,glycan array binding signal (z-score),[1],0.362
same,glycan array binding signal (z-score),[2],-0.635
same,glycan array binding signal (z-score),[3],-0.435
same,glycan array binding signal (z-score),[4],-0.305
same,glycan array binding signal (z-score),[5],0.135
same,glycan array binding signal (z-score),[6],-1.2
same,glycan array binding signal (z-score),[7],1.85
same,glycan array binding signal (z-score),[8],1.02
same,glycan array binding signal (z-score),[9],-0.32
same,glycan array binding signal (z-score),[10],0.709
same,glycan array binding signal (z-score),[11],0.937
same,glycan array binding signal (z-score),[12],-0.751
same,glycan array binding signal (z-score),[13],-0.506
same,glycan array binding signal (z-score),[14],-0.699
same,glycan array binding signal (z-score),[15],0.207
same,glycan array binding signal (z-score),[16],0.662
same,glycan array binding signal (z-score),Gal(b1-3)GlcNAc6S,-0.337
same,glycan array binding signal (z-score),[17],-0.546
same,glycan array binding signal (z-score),[18],1.56
same,glycan array binding signal (z-score),[19],2.23
same,glycan array binding signal (z-score),[20],0.08
same,glycan array binding signal (z-score),[21],-1.72
same,glycan array binding signal (z-score),[22],-0.35
same,glycan array binding signal (z-score),[23],-0.81
same,glycan array binding signal (z-score),[24],-0.22
same,glycan array binding signal (z-score),[25],-1.06
same,glycan array binding signal (z-score),[26],-0.606
same,glycan array binding signal (z-score),Gal(b1-4)Gal,-0.796
same,glycan array binding signal (z-score),[27],-1.14
same,glycan array binding signal (z-score),[28],-2.07
same,glycan array binding signal (z-score),Gal(b1-4)Glc,0.102
same,glycan array binding signal (z-score),Gal(b1-4)Glc6S,-0.309
same,glycan array binding signal (z-score),Gal(b1-4)GlcNAc,-0.433
same,glycan array binding signal (z-score),[29],-0.625
same,glycan array binding signal (z-score),Gal(b1-4)GlcNAc(b1-2)Man,1.18
same,glycan array binding signal (z-score),[30],-0.757
same,glycan array binding signal (z-score),[31],-0.541
same,glycan array binding signal (z-score),[32],0.746
same,glycan array binding signal (z-score),[33],-0.524
same,glycan array binding signal (z-score),[34],-1.24
same,glycan array binding signal (z-score),[35],0.917
same,glycan array binding signal (z-score),[36],-1.14
same,glycan array binding signal (z-score),[37],-0.645
same,glycan array binding signal (z-score),[38],1.96
same,glycan array binding signal (z-score),[39],0.448

# Two entries drawn at random from those above, as already listed:
binder,measurement,setting,value
B1,glycan array binding signal (z-score),Gal(b1-4)GlcNAc,-0.433
same,glycan array binding signal (z-score),[30],-0.757
